In article PMC7470980, “Mechanism of translation inhibition by type II GNAT toxin AtaT2” (Nucleic Acids Research, 2020):

Experiments:
[1] = biological target: AtaR2 antitoxin (Escherichia coli O157:H7 str. Sakai) (UniProt Q8X700); experiment: SEC; both purified
[2] = biological target: AtaR2 antitoxin (Escherichia coli O157:H7 str. Sakai) (UniProt Q8X700); experiment: tandem affinity purification

Question: Which binding [1] does the source give for “AtaT2 toxin (from UniProt Q8X6Z9) (enzyme)” here?
Answer: Its binding is “binds”.

Question: What about the binding [2] of the same substance?
Answer: Its binding is “binds”.

No constants are given. Whether binding was seen depends on the method and setting. Binding can be weak; no strength is given.
